Values quoted from earlier work, collected in patent publication US20100292280A1, “ANTI-PYRETIC VASODILATORS” (priority 2007, published 2010).
For at least one compound, name, drawing or mass did not settle the structure.

Test system: forearm and dorsum of the foot skin of healthy subjects and diabetic neuropathic patients

## CC(=O)OCC[N+](C)(C)C [acetylcholine]
Control group, forearm
  vasodilatory response, comparison between agents: similar
Diabetic patients, forearm and foot level
  maximal vasodilatory response, comparison between agents: similar
